For experiment [1], the target named is maxi-K channels from bovine aortic smooth muscle (Bos taurus, UniProt Q28204). Briefly: Patch clamp recording of maxi-K channel currents in excised inside-out membrane patches. Type of experiment: biochemical. The text has this:
Patch clamp recordings of currents flowing through large-conductance calcium-activated potassium (maxi-K) channels were made from membrane patches excised from cultured bovine aortic smooth muscle cells using conventional techniques (Hamill et al., 1981, Pflugers Archiv. 391, 85-100) at room temperature. Glass capillary tubing (Gamer #7052) was pulled in two stages to yield micropipettes with tip diameters of approximately 1-2 microns. Pipettes were typically filled with solutions containing (mM): 150 KCl, 10 Hepes (4-(2-hydroxyethyl)-1-piperazine ethanesulfonic acid), 1 Mg, 0.01 Ca, and adjusted to pH 7.20 with 3.7 mM KOH. After forming a high resistance (>10^9 ohms) seal between the sarcolemmal membrane and the pipette, the pipette was withdrawn from the cell, forming an excised inside-out membrane patch. The patch was excised into a bath solution containing (mM): 150 KCl, 10 Hepes, 5 EGTA (ethylene glycol bis(13-aminoethyl ether)-N,N,N',N'-tetraacetic acid), sufficient Ca to yield a free Ca concentration of 1-5 μM, and the pH was adjusted to 7.2 with 10.5 KOH. For example, 4.568 mM Ca was added to give a free concentration of 2 μM at 22 ° C. An AXOPATCH 1C amplifier (Axon Instruments, Foster City, Calif.) with a CV-4 headstage was used to control the voltage and to measure the currents flowing across the membrane patch. The input to the headstage was connected to the pipette solution with a Ag/AgCl wire, and the amplifier ground was connected to the bath solution with a Ag/AgCl wire covered with a tube filled with agar dissolved in 0.2M KCl. Maxi-K channels were identified by their large single channel conductance (~250 pS) and sensitivity of channel open probability to membrane potential and intracellular calcium concentration.
Data were stored on a RACAL STORE 4DS FM tape recorder (Racal Recorders, Vienna, Va.) or on digital video tape using a video casette recorder after digitizing the signal with VR-10 (Instrutech Corp., Belmont N.Y.) PCM video encoder. The signal was also recorded on chart paper with a GOULD 2400S chart recorder (Gould Inc., Cleveland Ohio). For quantitative analysis, the data was played into a DEC11-73 (Digital Equipment Corp., Maynard, Mass.) after digitization with a DT2782-8D1A analogue to digital converter (Data Translation Inc., Marlboro, Mass.), or played into a Mac IIx or Quadra 700 computer (Apple Computers) after digitization with an ITC-16 interface (Instrutech Corp., Belmont, N.Y.).
In general terms: Patch clamp records ionic current or voltage across a cell membrane.

By UniProt entry, the sequences of proteins in these tests, tags left out.
UniProt Q28204, whole entry: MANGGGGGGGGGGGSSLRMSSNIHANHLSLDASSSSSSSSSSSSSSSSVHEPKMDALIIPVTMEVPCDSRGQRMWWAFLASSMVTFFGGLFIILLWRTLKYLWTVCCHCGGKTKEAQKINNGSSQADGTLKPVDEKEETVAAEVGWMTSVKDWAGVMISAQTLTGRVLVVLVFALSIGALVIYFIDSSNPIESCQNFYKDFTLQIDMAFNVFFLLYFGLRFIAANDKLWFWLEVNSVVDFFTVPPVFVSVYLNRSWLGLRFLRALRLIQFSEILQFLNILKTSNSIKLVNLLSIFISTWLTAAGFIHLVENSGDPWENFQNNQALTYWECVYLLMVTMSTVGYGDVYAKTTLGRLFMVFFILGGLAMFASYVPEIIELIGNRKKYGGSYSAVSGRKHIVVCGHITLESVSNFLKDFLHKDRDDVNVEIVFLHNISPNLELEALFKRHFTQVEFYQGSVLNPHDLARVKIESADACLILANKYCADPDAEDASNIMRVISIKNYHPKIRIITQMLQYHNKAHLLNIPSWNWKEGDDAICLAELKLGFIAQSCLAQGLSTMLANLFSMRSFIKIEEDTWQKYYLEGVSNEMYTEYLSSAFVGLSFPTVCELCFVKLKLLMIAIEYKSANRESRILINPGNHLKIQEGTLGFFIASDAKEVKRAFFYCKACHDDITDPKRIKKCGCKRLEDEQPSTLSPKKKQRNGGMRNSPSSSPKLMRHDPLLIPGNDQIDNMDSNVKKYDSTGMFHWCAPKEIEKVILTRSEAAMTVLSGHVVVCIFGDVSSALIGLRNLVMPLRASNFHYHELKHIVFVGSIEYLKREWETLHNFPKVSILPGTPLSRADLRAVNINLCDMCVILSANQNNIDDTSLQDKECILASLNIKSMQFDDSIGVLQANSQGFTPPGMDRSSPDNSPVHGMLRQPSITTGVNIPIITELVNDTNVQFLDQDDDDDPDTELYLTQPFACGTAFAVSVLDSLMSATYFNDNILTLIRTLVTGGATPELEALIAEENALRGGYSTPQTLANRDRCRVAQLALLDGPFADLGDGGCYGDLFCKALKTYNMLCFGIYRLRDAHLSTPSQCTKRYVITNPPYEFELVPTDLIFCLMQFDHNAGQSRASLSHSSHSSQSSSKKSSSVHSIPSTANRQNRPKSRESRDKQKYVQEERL
UniProt Q28067, whole entry partner: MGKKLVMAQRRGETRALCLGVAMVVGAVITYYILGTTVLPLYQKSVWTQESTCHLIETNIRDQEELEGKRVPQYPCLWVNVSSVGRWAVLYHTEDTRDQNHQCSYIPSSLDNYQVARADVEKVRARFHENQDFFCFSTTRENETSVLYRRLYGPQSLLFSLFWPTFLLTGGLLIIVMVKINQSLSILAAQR

The target in experiment [2] is bovine aortic sarcolemma membrane vesicles ([^125 I]ChTX receptor) (Bos taurus, UniProt Q28204). Description: [^125 I]ChTX binding assay with aortic sarcolemma membrane vesicles. The settings on record: 10 μM. The method, then: The interaction of [^125 I]ChTX with bovine aortic s sarcolemma membrane vesicles was determined under conditions as described (Vazquez et al., 1989, J. Biol. Chem. 264, 20902-20909). Briefly, sarcolemma membrane vesicles were incubated in 12×75 polystyrene tubes with ca. 25 pM [^125 I]ChTX (2200 Ci/mmol), in the absence or presence of test compound, in a media consisting of 20 mM NaCl, 20 mM Tris-HCl pH 7.4, 0.1% bovine serum albumin, 0.1% digitonin. Nonspecific binding was determined in the presence of 10 nM ChTX. Incubations were carried out at room temperature until ligand binding equilibrium is achieved at ca. 90 min. At the end of the incubation period, samples were diluted with 4 mL ice-cold 100 mM NaCl, 20 mM Hepes-Tris pH 7.4 and filtered through GF/C glass fiber filters that have been presoaked in 0.5% polyethylenimine. Filters were rinsed twice with 4 mL ice-cold quench solution. Radioactivity associated with filters was determined in a gamma counter. Specific binding data in the presence of each compound (difference between total binding and nonspecific binding) was assessed relative to an untreated control.

Structures were worked out from names or drawings and are uncertain.

Take `CC(C)=CCOC(C)(C)[C@H]1O[C@H]2CC[C@]3(C)[C@@]4(C)c5[nH]c6ccc(CC=C(C)C)cc6c5C[C@@H]4CC[C@@]3(O)C23OC3[C@@H]1O` (stereo partly drawn): the “block of maxi-K channels / channel activity” value in experiment [1] (10 nM) is recorded as “blocked a small fraction of channel activity”. In addition, the “block of channel activity” value in experiment [1] (100 nM) is “blocked approximately one half of the channel activity”; in experiment [1] (1 μM), “blocked nearly all of the channel activity”. For the same compound, the “block of maxi-K channels relative to Compound C” value in experiment [1] (compared with Compound C) was “weaker blockers of maxi-K channels than Compound C”. Further, the IC50 in experiment [1] (read-out: 50% CHANNEL BLOCK, table of Example 4) was 100 nM. In addition, the “inhibition of [^125 I]ChTX binding” value in experiment [2] was determined as 2%.

The values are drawn from patent US5541208A, “Indole diterpene alkaloid compounds” (priority 1994, dated 1996).
